Patent US6602981B2, “Antinociceptive agent derivative” (priority 1997, dated 2003)
Not every detail of the peptide structures is certain; ends, links or a residue may be inferred.

Tested on: mu opiate receptor
Experiment: Non-selective binding assay, [3H]-Naloxone, rat brain homogenate
Conditions: 1.0 nM [3H]-Naloxone; for % INHIBITION AT 0.1 nM: 0.1 nM test substance; for % INHIBITION AT 10 nM: 10 nM test substance; for % INHIBITION AT 1000 nM: 1000 nM test substance

Structure (SMILES) | % INHIBITION AT 0.1 nM | % INHIBITION AT 10 nM | % INHIBITION AT 1000 nM
CC[C@H](C)[C@H](NC(=O)[C@H](CCCNC(=N)N)NC(=O)[C@H](CCCNC(=N)N)NC(=O)[C@H](CC(C)C)NC(=O)[C@H](Cc1ccccc1)NC(=O)CNC(=O)CN)C(=O)N[C@@H](CCCNC(=N)N)C(=O)N1CCC[C@H]1C(=O)N[C@@H](CCCCN)C(=O)N[C@@H](CC(C)C)C(=O)N[C@@H](CCCCN)C(N)=O [Dynorphin A 2-13-NH2] | 1.66% | −0.19% | 44.07%
CC[C@H](C)[C@H](NC(=O)[C@H](CCCNC(=N)N)NC(=O)[C@H](CCCNC(=N)N)NC(=O)[C@H](CC(C)C)NC(=O)[C@H](Cc1ccccc1)NC(=O)CNC(=O)CN)C(=O)N[C@@H](CCCNC(=N)N)C(=O)N1CCC[C@H]1C(=O)N[C@@H](CCCCN)C(=O)N[C@@H](CC(C)C)C(=O)N[C@@H](CCCCN)C(=O)N[C@@H](Cc1c[nH]c2ccccc12)C(=O)N[C@@H](CC(=O)O)C(=O)N[C@@H](CC(N)=O)C(=O)N[C@@H](CCC(N)=O)C(N)=O [Dynorphin A 2-17-NH2] | −3.21% | 4.87% | 12.69%
CC[C@H](C)[C@H](NC(=O)[C@H](CCCNC(=N)N)NC(=O)[C@H](CCCNC(=N)N)NC(=O)[C@H](CC(C)C)NC(=O)[C@H](Cc1ccccc1)NC(=O)CNC(=O)CNC(=O)[C@@H](N)Cc1ccc(O)cc1)C(=O)N[C@@H](CCCNC(=N)N)C(=O)N1CCC[C@H]1C(=O)N[C@@H](CCCCN)C(=O)N[C@@H](CC(C)C)C(=O)N[C@@H](CCCCN)C(N)=O [Dynorphin A 1-13-NH2] | 2.76% | 9.89% | 91.78%
